Where “and” joins values, the source holds several entries; their conditions need not be identical. Equal values may be shown once. The list shows a part of the results. Further columns of the screen follow, without active or inactive calls. Compounds called inactive in the main read-out are mostly missing here. The note in brackets gives the kind of curve behind each potency; many fits are weak.
Test: qHTS Assay for Modulators of Lamin A Splicing
Details: HeLa LMNA splicing GFP/RFP minigene ratio, 48 h
How it was run: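 S3 HeLa cells stably expressing lamin A-EGFP splicing minigene plus DsRed2, 600 cells/well, 48 h compound exposure at 37C. Laser-scanning cytometry; analysed as GFP (500-530 nm)/RFP (575-640 nm) total intensity ratio; 0.5% DMSO vehicle.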

[1] = measured here: RFP viability control channel
[2] = measured here: GFP splicing reporter channel

Cc1ccc(NC(=O)CN2C(=O)NC(C)(c3ccc(Cl)cc3)C2=O)cc1S(=O)(=O)N1CCOCC1 (stereo unspecified)
AC50 [1]: 12.6 µM [rising, partial curve]

CN(C)S(=O)(=O)c1ccc(C(=O)Nc2nnc(-c3cccs3)o2)cc1
AC50 [1]: 1.58 µM [rising, full curve, poor fit]

CC(=O)N1CCc2cc(CNC(=O)Cc3ccc(F)cc3)ccc21
AC50 [1]: 0.00398 µM [falling, full curve, poor fit]

CCOC(=O)c1cnc2c(C)c(C)ccc2c1Nc1ccc(S(=O)(=O)Nc2ncccn2)cc1
AC50 [1]: 0.0316 µM [rising, full curve, poor fit]

CCCCc1ccc(/C=C2\C(=O)c3ccccc3C(O)=C2C(=O)OCC)cc1
AC50 [2]: 35.5 µM [falling, single point] | AC50 [1]: 17.8 µM [rising, single point]

Cc1nnc(SCC(=O)c2cc(C)n(-c3ccc4c(c3)OCO4)c2C)s1
AC50 [1]: 10 µM [rising, partial curve]

CCn1cc(C(=O)N2CCN(c3ccc([N+](=O)[O-])cc3)CC2)c(=O)c2ccc(C)nc21
AC50 [1]: 1.26 µM [rising, single point]

Cc1ccccc1NC(=S)NNc1ncc(C(F)(F)F)cc1Cl
AC50 [1]: 35.5 µM [rising, single point]

CN(C)/C=C(/C(=O)c1ccccc1)n1cncn1
AC50 [2]: 0.708 µM [rising, full curve, poor fit] | AC50 [1]: 0.447 µM [rising, full curve, poor fit]

CCCC/C=C/C(NC(=O)CCc1ccccc1)c1ccccc1 (stereo unspecified)
AC50 [1]: 22.4 µM [rising, single point]

O=C(NC(NNc1ccc([N+](=O)[O-])cc1)(C(F)(F)F)C(F)(F)F)c1ccc(F)cc1
AC50 [1]: 0.0355 µM [rising, full curve, poor fit]

OCCN1CCN(CC/C=C2/c3ccccc3Sc3ccc(C(F)(F)F)cc32)CC1
AC50 [2]: 4.47 nM [rising, full curve, poor fit] and 15.8 µM [falling, partial curve] | AC50 [1]: 17.8 µM [rising, partial curve] and 20 µM [falling, partial curve]

COc1ccc(C(=O)Nc2nc(-c3ccccc3)c(C(C)=O)s2)c(OC)c1
AC50 [2]: 3.55 µM [falling, full curve] | AC50 [1]: 4.47 µM [falling, full curve, poor fit]

CC(C)CCN1CCN(Cc2cnc(-c3ccccc3)s2)CC1CCO (stereo unspecified)
AC50 [2]: 0.112 µM [falling, full curve, poor fit] | AC50 [1]: 0.178 µM [falling, full curve, poor fit]

Cc1cc(-c2nnc(SCC(=O)c3ccc4c(c3)OCCO4)o2)no1
AC50 [1]: 35.5 µM [rising, single point]

O=C(Nc1cccc(NC(=O)c2cccs2)c1)c1ccc2c(c1)OCO2
AC50 [2]: 0.00316 µM [falling, full curve, poor fit]

Cc1cc(/C=N/n2cnnc2)c(O)c([N+](=O)[O-])c1
AC50 [2]: 1.78 µM [rising, full curve, poor fit] | AC50 [1]: 8.91 µM [rising, partial curve]

CCNc1ncc2ncc(=O)n(Cc3cccc(OC)c3)c2n1
AC50 [2]: 12.6 µM [falling, single point]

COc1ccc(NC(=S)NCCc2c[nH]c3ccccc23)c(OC)c1
AC50 [2]: 15.8 µM [rising, single point] | AC50 [1]: 22.4 µM [rising, single point]

Cc1ccc(Nc2nnc(SCC(=O)c3ccc(Br)s3)s2)c(C)c1
AC50 [1]: 31.6 µM [rising, single point]

CN(c1ccc(C(=O)N2CCN(Cc3ccc4c(c3)OCO4)CC2)cc1)S(=O)(=O)c1ccccc1
AC50 [1]: 11.2 µM [rising, partial curve]

Cc1ccccc1NC(=O)Cn1c(NCC(C)O)nc2ccccc21 (stereo unspecified)
AC50 [1]: 1.12 µM [rising, full curve, poor fit]

O=C(CNC(=O)c1ccco1)OCC(=O)c1ccccc1Cl
AC50 [2]: 0.0126 µM [rising, full curve, poor fit]

COc1ccccc1N1CCN(c2ccc([N+](=O)[O-])cc2Cl)CC1
AC50 [1]: 3.16 µM [rising, full curve]

CC(=O)N1C(C)(C)CC(=NOC(=O)c2ccccc2)CC1(C)C
AC50 [2]: 3.98 µM [falling, single point] | AC50 [1]: 0.00501 µM [falling, full curve, poor fit]

COC(=O)c1ccccc1NC(=O)c1ncoc1-c1ccco1
AC50 [1]: 35.5 µM [falling, single point]

CCCc1cc(=O)oc2c3c(ccc12)OCN(Cc1ccc(OC)cc1)C3
AC50 [2]: 35.5 µM [falling, single point] | AC50 [1]: 25.1 µM [falling, partial curve, poor fit]

O=C(N/N=C/c1ccccc1OC(=O)c1ccc2c(c1)OCO2)c1cccc(F)c1
AC50 [1]: 12.6 µM [rising, single point]

Cc1ccc(-n2ccc(=O)c(-c3ccnc(SCc4cccc(Cl)c4)n3)n2)cc1
AC50 [2]: 35.5 µM [falling, single point] | AC50 [1]: 35.5 µM [falling, single point]

CCCn1nc(C(=O)Nc2cccc(C(=O)OC)c2)c2ccccc2c1=O
AC50 [1]: 31.6 µM [rising, single point]

COc1ccccc1C(=O)N1CCC(C(=O)c2ccc(F)cc2)CC1
AC50 [2]: 20 µM [rising, partial curve, poor fit] | AC50 [1]: 14.1 µM [rising, single point]

N#Cc1c(-c2ccccc2)ccnc1N1CCOCC1
AC50 [2]: 0.00794 µM [falling, full curve, poor fit] | AC50 [1]: 22.4 µM [falling, partial curve, poor fit]

COc1ccc(C(=O)NC(C(=O)N2CCc3ccccc32)C(C)C)cc1 (stereo unspecified)
AC50 [2]: 0.0708 µM [falling, full curve] | AC50 [1]: 1.58 µM [falling, full curve]

O=C(C1CCN(c2ncnc3c2nc2n3CCCCC2)CC1)N1CCN(c2cccc(Cl)c2)CC1
AC50 [2]: 3.55 µM [falling, single point]

Cc1ccc(Cl)cc1N1CCN(C(=O)C2(S(=O)(=O)c3ccc(Cl)cc3)CC2)CC1
AC50 [1]: 12.6 µM [rising, single point]

O=C(/C=C/c1ccc(O)c(O)c1)c1ccc(S(=O)(=O)N2CCCCCC2)cc1
AC50 [2]: 17.8 µM [rising, single point] | AC50 [1]: 12.6 µM [rising, partial curve]

Cc1cn[nH]c1
AC50 [1]: 5.62 µM [falling, partial curve, poor fit]

Clc1ccc(/C=N/Nc2ncnc3ccccc23)cc1Cl
AC50 [2]: 14.1 µM [falling, single point] | AC50 [1]: 22.4 µM [falling, partial curve]

CCOC(=O)c1c(NC(=O)CSc2nc3ccccc3o2)sc(C)c1C
AC50 [2]: 3.55 µM [rising, partial curve] | AC50 [1]: 12.6 µM [rising, partial curve]

O=C(Nc1ccc(Br)c(C(F)(F)F)c1)c1ccccc1
AC50 [2]: 12.6 µM [rising, single point] | AC50 [1]: 28.2 µM [rising, single point]

Cc1cc(C)c(C(=O)/C=C/c2cccs2)c(=O)[nH]1
AC50 [1]: 31.6 µM [rising, single point]

Cc1ccccc1NC(=S)N(CCN1CCOCC1)Cc1ccccc1F
AC50 [2]: 0.631 µM [rising, single point]

COCC(=O)NCc1nc2cccnc2n1Cc1ccc(F)cc1
AC50 [2]: 0.0224 µM [falling, full curve, poor fit] | AC50 [1]: 0.0224 µM [falling, full curve, poor fit]

c1ccc(-c2csc(N3CCSCC3)n2)cc1
AC50 [2]: 35.5 µM [falling, partial curve]

Cc1ccccc1NC(=O)c1ccc(Cl)c(NC(=O)c2ccncc2)c1
AC50 [2]: 31.6 µM [rising, single point] | AC50 [1]: 14.1 µM [rising, single point]

O=C(NC(=S)Nc1ccccc1N1CCOCC1)c1ccc(-c2cc(Cl)ccc2Cl)o1
AC50 [1]: 31.6 µM [rising, partial curve, poor fit]

Cc1ccc(S(=O)(=O)N(C)C)cc1NC(=S)NC(C)CCC(C)C (stereo unspecified)
AC50 [2]: 12.6 µM [rising, partial curve] | AC50 [1]: 12.6 µM [rising, partial curve]

CCC(C(=O)Nc1cc(Cl)ccc1OC)c1ccccc1 (stereo unspecified)
AC50 [2]: 17.8 µM [rising, single point] | AC50 [1]: 31.6 µM [rising, single point]

COc1ccc(Nc2cc(C(=O)NCCCN3CCN(c4ccc(OC)cc4)CC3)c3ccccc3n2)cc1
AC50 [1]: 15.8 µM [rising, single point]

NNC(=O)c1ccc(Cn2cc(Br)cn2)cc1
AC50 [2]: 11.2 µM [rising, partial curve] | AC50 [1]: 11.2 µM [rising, partial curve]

COc1cccc(-c2cc3nc4c(c(N5CCC6(CC5)OCCO6)n3n2)CCC4)c1
AC50 [1]: 22.4 µM [rising, partial curve, poor fit]

Cc1ccc(C)c(SCC(=O)Nc2cccc(S(=O)(=O)NC3=NCCCCC3)c2)c1
AC50 [2]: 7.08 µM [rising, partial curve] | AC50 [1]: 20 µM [rising, single point]

O=[N+]([O-])c1ccc(C2CN=C(Nc3ccccc3)S2)cc1 (stereo unspecified)
AC50 [1]: 0.141 µM [falling, full curve, poor fit]

Reference: PubChem BioAssay AID1487 (National Center for Advancing Translational Sciences (NCATS), 2009)
